# Measurements published in PubChem BioAssay AID2685 (National Center for Advancing Translational Sciences (NCATS), 2010).
# This is one part of the list. These are further read-outs of the screen, such as a control signal, another cell line or another target. No call is given for them. Most of these compounds were active or inconclusive in the main read-out, so they are no random draw. The note in brackets gives the kind of curve behind each potency; many fits are weak.
# Assay: qHTS Assay for Lipid Storage Modulators in Drosophila S3 Cells;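 on cell number change: cells counted by Cell Tracker Red CMTPX staining in the red channel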
# Details: BODIPY lipid droplet fluorescence, 18-24 h; for cell number change: measured here: cell count max response, cells fed with added oleic acid
# How it was run: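 Laser-scanning cytometry quantifies lipid droplet accumulation (500–530 nm total intensity; droplet/cell object ratio) in oleic acid-fed (400 uM added) Drosophila S3 cells treated with a concentration series. 20 uM Triacsin C defined 100% inhibition.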
# [1] = measured here: lipid fluorescence (Fed channel) AC50, cells fed with added oleic acid
# [2] = measured here: cell number channel AC50, cells fed with added oleic acid
SMILES,cell number change,AC50 [1],AC50 [2]
CCOC(=O)COc1ccc(Oc2nc(C)cc(OC)n2)nn1,9.77%,"29.1 µM [rising, partial curve, poor fit]",–
Brc1ccc(CSc2nnc(-c3ccccn3)n2Cc2ccco2)cc1,-28.4%,"14.6 µM [rising, partial curve]",–
CCCCc1nc(SCCOC)c2c(=O)n(C)c(=O)n(C)c2n1,–,"4.11 µM [rising, full curve, poor fit]","3.66 µM [rising, partial curve, poor fit]"
COc1cc(NC(=O)CN(c2ccc(C)cc2)S(=O)(=O)c2c(C)nn(C)c2C)cc(OC)c1,-8.73%,–,–
CCC(C)(C)n1nnnc1CN1CCSCC1,-4.79%,"16.4 µM [falling, partial curve]",–
CCOc1ccc(S(=O)(=O)N2CCN(C(=O)C3CCC3)CC2)cc1,32.5%,"29.1 µM [rising, single point]","13 µM [rising, partial curve]"
CCOc1ccc(Br)cc1S(=O)(=O)Nc1ccc(C(=O)Nc2ccccc2OC)cc1,22.1%,–,"0.00461 µM [falling, full curve, poor fit]"
CC(C)(C)c1cc(NC(=O)c2ccco2)no1,11.4%,–,–
Cc1c(Cl)cccc1NC(=O)Cn1cccc1,20.3%,"6.51 µM [falling, partial curve]",–
COc1ccc(-c2nc3ccccc3n2CCC(C)C)cc1OC,62.3%,–,"1.46 µM [rising, partial curve]"
O=C(Nc1cccc(-c2nc3ncccc3o2)c1)c1sc2ccccc2c1Cl,6.32%,"0.146 µM [rising, full curve, poor fit]",–
O=S(=O)(c1ccc2c(c1)CCN2)N1CCOCC1,2.71%,"0.259 µM [rising, full curve]",–
COc1cc(/C=C/C(=O)OCC(=O)NC(=O)NC(C)C)cc(S(=O)(=O)N2CCc3ccccc32)c1OC,14.3%,"3.26 µM [rising, full curve]",–
Cc1ccc(C(=O)Nc2cc(=O)n(C)c(=O)n2C)cc1C,–,"0.00461 µM [rising, full curve, poor fit]",–
CCOC(=O)N1CCN(C(=O)c2cc3c(s2)-c2ccccc2OC3)CC1,64.7%,–,"14.6 µM [rising, partial curve]"
Cn1c(=O)c2c(nc(CN3CCOCC3)n2CC(O)CO)n(C)c1=O (stereo unspecified),2.97%,"18.4 µM [falling, partial curve, poor fit]",–
Cc1ccc(C)c(S(=O)(=O)c2c(C)cc(C)[nH]c2=O)c1,-12.2%,"13 µM [rising, partial curve, poor fit]",–
Cc1ccccc1NC(=O)C(=O)N/N=C/c1cccc(Br)c1,12%,"2.31 µM [rising, partial curve]",–
Cc1ccc(C(=O)NC2CCCc3ccccc32)cc1[N+](=O)[O-] (stereo unspecified),-2.7%,"29.1 µM [rising, single point]",–
CCOC(=O)c1ccc(-c2ccc(/C=C(\C#N)C(=O)NCC3CCCO3)o2)cc1 (stereo unspecified),35.2%,"25.9 µM [rising, single point]","18.4 µM [rising, single point]"
CCOc1ccccc1/C=C/c1onc(C)c1S(=O)(=O)N1CCC(C(=O)NC)CC1,-11.5%,–,–

# Exported as tab-separated lines: part of the list above
SMILES	cell number change	AC50 [1]	AC50 [2]
O=S(=O)(c1ccc2c(c1)CCN2)N1CCOCC1	2.71%	0.259 µM [rising, full curve]	–
COc1cc(/C=C/C(=O)OCC(=O)NC(=O)NC(C)C)cc(S(=O)(=O)N2CCc3ccccc32)c1OC	14.3%	3.26 µM [rising, full curve]	–
Cc1ccc(C(=O)Nc2cc(=O)n(C)c(=O)n2C)cc1C	–	0.00461 µM [rising, full curve, poor fit]	–
CCOC(=O)N1CCN(C(=O)c2cc3c(s2)-c2ccccc2OC3)CC1	64.7%	–	14.6 µM [rising, partial curve]
Cn1c(=O)c2c(nc(CN3CCOCC3)n2CC(O)CO)n(C)c1=O (stereo unspecified)	2.97%	18.4 µM [falling, partial curve, poor fit]	–

# (more compounds)

SMILES,cell number change,AC50 [1],AC50 [2]
CCn1nc(C)c(NC(=O)c2cc(Br)ccc2Cl)c1C,20.3%,–,–
O=C(NCC1CCCO1)c1cc2ccccc2[nH]1 (stereo unspecified),0.249%,–,"0.116 µM [falling, full curve, poor fit]"
O=C(Nc1nccs1)C1CC(=O)N(c2ccccc2)C1 (stereo unspecified),5.26%,"5.62 µM [rising, single point]",–
COc1ccccc1CCCNC(=O)C1CCC(=O)N(CCc2cccc(F)c2)C1 (stereo unspecified),-22.6%,"35.5 µM [falling, single point]","0.0891 µM [falling, full curve, poor fit]"
Cc1cc(OC(=O)c2cc(C(F)(F)F)cc(C(F)(F)F)c2)c([N+](=O)[O-])c(=O)[nH]1,17.7%,–,"1.84 µM [rising, partial curve]"
CN(C(=O)c1cccs1)c1ccc(OCC(=O)Nc2ccc(C(=O)O)cc2)cc1,-27.6%,"0.00461 µM [falling, full curve, poor fit]",–
CCSc1nnc(-c2ccc(S(=O)(=O)N3CCCC3)cc2)n1C,16.5%,–,–
CCN1C(=O)CC(N2CCN(c3ccc(C(=O)c4ccncc4)cc3)CC2)C1=O (stereo unspecified),44.3%,–,"20.6 µM [rising, single point]"
Cc1cc(O)c(C(=O)/C=C/c2ccccc2O)c(=O)o1,-9.01%,–,"6.51 µM [rising, single point]"
CCOc1ccc(-c2c(C(=O)N/N=C/c3cccc(Br)c3)nnn2-c2nonc2N)cc1,2.28%,–,–
COc1ccc(C2C(C(N)=O)=C(C)Nc3nc(-c4ccccc4Cl)nn32)c(OC)c1 (stereo unspecified),9.53%,–,–
CC1CCCC(C)N1C(=O)COC(=O)c1n[nH]c(=O)c2ccccc12 (stereo unspecified),5.41%,"4.11 µM [rising, partial curve, poor fit]","5.8 µM [rising, single point]"
CCC1CCCCN1C1Sc2ccc(C(=O)OC)cc2NC1=O (stereo unspecified),–,"3.26 µM [rising, single point]",–
c1ccc(CN2CCC(Nc3nc(-c4ccccc4)nc4ccccc34)CC2)cc1,-92.6%,"25.9 µM [falling, single point]",–
CC(Sc1ccc(S(=O)(=O)N2CCN(C)CC2)cn1)C(=O)NC1CCCCC1 (stereo unspecified),-5.57%,"0.82 µM [rising, full curve, poor fit]",–
Cc1cc(C)nc(N(C#N)CC(=O)c2ccccc2)n1,-5.55%,"2.06 µM [rising, partial curve]",–
CCC(C)Oc1ccc(C(=O)Nc2ccc(CN3CCOCC3)cc2)cc1 (stereo unspecified),-1.4%,–,–
CCSc1nnc(NC(=O)COc2cccc3ccccc23)s1,-33.1%,"29.1 µM [falling, single point]","5.8 µM [falling, full curve, poor fit]"
CCCn1c(N)c(C(=O)COC(=O)CCNS(=O)(=O)c2ccccc2F)c(=O)[nH]c1=O,5.76%,"7.31 µM [falling, partial curve]",–
O=C(CNC(=O)c1ccco1)N/N=C/c1ccc(O)cc1O,-75.7%,–,"25.9 µM [falling, partial curve]"
CCn1c(SCC(=O)Nc2nc(-c3ccc(C)cc3)cs2)nnc1-c1ccccc1,-132%,"23.1 µM [falling, partial curve, poor fit]","29.1 µM [falling, single point]"

SMILES,cell number change,AC50 [1],AC50 [2]
CN1CCCc2cc(C#N)c(=O)[nH]c21,-36.3%,"0.651 µM [falling, full curve]","0.58 µM [falling, partial curve]"
O=C(CN1C(=O)NC2(CCCC2)C1=O)Nc1cccc(C(F)(F)F)c1,19.3%,–,–
CC(=O)Oc1ccc(-c2nc(-c3cccnc3)no2)cc1,74.3%,"29.1 µM [rising, single point]","29.1 µM [rising, single point]"
COc1ccc(NC(=S)N2CCN(S(=O)(=O)c3ccc(C)cc3)CC2)cc1,-8.91%,"0.58 µM [rising, single point]",–
Cc1ccc(S(=O)(=O)c2nc(S(C)(=O)=O)sc2N2CCOCC2)cc1,-15.6%,"4.11 µM [falling, single point]",–
Cn1c(=O)c(=O)n(C)c2cc([N+](=O)[O-])c(N3CCOCC3)cc21,-11.8%,–,–
COc1cccc2sc(N3CCN(c4nc5ccccc5s4)CC3)nc12,-0.364%,–,–
COc1ccc(-c2ccccc2)cc1NCc1ccc(OC)c(OC)c1,28.3%,"8.2 µM [rising, partial curve]",–
COc1ccccc1NC(=O)c1ccc(NC(=O)c2ccc(=O)[nH]c2)cc1,-6.43%,–,–
CN(CC(=O)Nc1ccccc1Cl)C(=O)COC(=O)c1ccc(C(F)(F)F)cc1,35.9%,"25.9 µM [rising, single point]","25.9 µM [rising, single point]"
Cc1ccc(SC(c2ccc(C)cc2)C(Cn2cncn2)C(=O)c2ccccc2)cc1 (stereo unspecified),-4.64%,–,"0.13 µM [rising, full curve, poor fit]"
COc1ccc(CCCNC(=O)C2CCC(=O)N(Cc3ccc(Cl)cc3)C2)cc1 (stereo unspecified),-16.3%,–,–
CC(c1ccccc1)c1nnc(N)s1 (stereo unspecified),18.5%,–,–
NC(=O)Nc1ccc(C(=O)OCC(=O)NCc2ccc3c(c2)OCO3)cc1,5.84%,"3.26 µM [rising, partial curve]",–
CC(=O)N1CCc2c(sc(NC(=O)CCS(=O)(=O)c3ccccc3)c2C(N)=O)C1,-14.5%,"8.91 µM [falling, partial curve, poor fit]",–
CSc1nnc(-c2cc3c(s2)-c2ccccc2CC3)o1,–,"29.1 µM [rising, single point]",–
CC(C)[C@@H](C(=O)NCC1CCC(C(=O)O)CC1)n1nnc2ccccc2c1=O (stereo partly specified),-1.75%,"0.58 µM [falling, full curve]",–
Cc1cccc(-n2ncc3c(N)ncnc32)c1,85.7%,–,"29.1 µM [rising, single point]"
CCOc1ccc(S(=O)(=O)N2CCCCC2)cc1NC(=O)C1CSC2(C)CCC(=O)N12 (stereo unspecified),13.4%,"29.1 µM [rising, single point]",–
C=CCN(CC(=O)Nc1c(C)cccc1CC)C(=O)SCCC,6.93%,"0.731 µM [rising, single point]",–
